Experimental data published in PubChem BioAssay AID1347423 (Functional Genomics Laboratory (NCATS/FGL), 2020).
About 210 (0.4%) of roughly 52,000 sequences were called active.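 The calls were made as follows: active = gene whose silencing raises cell survival under the drug, median off-target-corrected z-score across its silencing RNAs 2 or more; inactive = the rest.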 The list shows a part of the results.

Test: Resistance to Poly (ADP-Ribose) Polymerase inhibitor: Gene Identification via Genome-wide siRNA Screen
Settings: mouse BRCA2 R2336H ES cells, olaparib, CellTiter-Glo viability; stronger effect = higher value
How it was run: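 Genome-wide siRNA screen (3 siRNAs/gene, 20 nM) in mouse ES cells carrying hypomorphic BRCA2 R2336H; olaparib 500 nM added 48 h post-transfection, CellTiter-Glo viability 72 h later. Normalized to plate-median negative control; MAD z-scores, gene median, seed-adjusted.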

Sequence	z-score
GGAGAGCUAGCUUGACAUGTT against 6330404A07Rik	inactive: 0.401
GGGAGGAAGAAGAAGGUCATT against Atp1b4	inactive: -0.71
GGACGUGUUUGGGAUUGUUTT against Csad	inactive: 0.0165
CGAAUAUCAUCUCACACUCTT against Olfr875	inactive: -0.285
GGUAGUUGUCCUCAUGUGCTT against Scn2b	inactive: 1.72
GCGGCCAUUACCAAAAUUGTT against Olfr520	inactive: 0.138
GCAAAGGGUUCCUGUACUUTT against C330021A05Rik	inactive: 0.814
GGGAGACAAUCGUUUUAGCTT against Tgfbi	inactive: 0.624
GGUUACUCUAAAGUCAAGUTT against 4921525L17Rik	inactive: 0.793
GGAAGAAAUGAUGAAUGACTT against 1500016L11Rik	inactive: 0.32
GGAUCAGACUGUACGAGAGTT against Crygd	inactive: -0.816
GGAACUCUUCUAUUACAGATT against Sfxn4	inactive: 0.145
GCAAUUUAUGCCCUGCCUUTT against Fastk	inactive: -0.896
CCUUGAAAAGUCUAAACGUTT against Tmod2	inactive: 0.494
GGUCCUUGCCAAAACAAUUTT against Crb1	inactive: -0.597
GGCUGUGUAAGAUUUGUUUTT against Hmgb1	inactive: -0.309
CCACAUCUAGAUUUUGACUTT against 5830418K08Rik	inactive: 0.16
GGUUAGAGUGCCUUUCCUUTT against Ctxn	inactive: -1.37
CGGUAAACAUCAGUAAUGATT against Drd5	inactive: 0.412
GGUUGCUGACAAAUGAAAGTT against BB219290	inactive: 1.99
GGCGAACACUGUCAUGAAUTT against 9630042H07Rik	inactive: 1.42
GCAUCCUCAGCCGUAUAUCTT against Ndufb9	inactive: -0.253
GGUCUUCUAUAUCCUGUGCTT against Fbxo6b	inactive: 1.38
GCAUCUCAGCUCUGAUUUATT against 2610306H15Rik	inactive: -0.101
GGAAUUUCUCUUGGAAUUGTT against 0610013E23Rik	inactive: -0.339
GCCUAAAACUGCUUUGUAATT against D7Ertd462e	inactive: -0.187

Three entries drawn at random from the list so far, as already listed:
Sequence	z-score
GGGAGGAAGAAGAAGGUCATT against Atp1b4	inactive: -0.71
GGUUGCUGACAAAUGAAAGTT against BB219290	inactive: 1.99
GGAAUUUCUCUUGGAAUUGTT against 0610013E23Rik	inactive: -0.339

The listing continues:

Sequence	z-score
GGGCAGGAGAAGGAUUCAUTT against Rit1	inactive: 1.74
GGAAUAAGGACAUAAAGAATT against Olfr415	inactive: 0.276
CCAAUGCUUCUAGUUAACATT against Olfr155	inactive: 0.0629
GCAUAAAAAACGAAUAGAGTT against Smc1l2	inactive: 0.436
GGGCUAAUAUACAGAAAUATT against Rrm2b	inactive: 1.13
GGAAGAUUGUAACUGAUUATT against Cpa4	inactive: 0.401
GGUGAUGGAAGAAGAAGGCTT against Stk38	inactive: -1.23
GGAUGACUCGGAGAACUACTT against Psca	inactive: 0.643
GGAAAUCACAUUGUCCUGCTT against 3010003L21Rik	inactive: -0.743
GGAAGUAGCUUAUUGUUCUTT against Polr2b	inactive: -3.27
GCAAUAAGUUGACUGUGGATT against Zxda	inactive: -0.649
GGGUAGUAACAAUUAGAUCTT against 2900041A09Rik	inactive: 0.0344
CCGGCUACUUCAUACCAGATT against Fxyd6	inactive: 0.913
GUACUUGAGGCAGAAGGCATT against Cyp3a11	inactive: -0.0219
CGUUUCCAGAUUGCACCUUTT against 2610207P08Rik	inactive: -0.692
GCUGUUACUCAGCAGAGAGTT against Bach2	inactive: -0.64
CCUGUUGAGUGACCUAAGGTT against Gm962	inactive: -0.4
GGCAACUGUGUGCUUGUGATT against Pla2g2d	inactive: -1.82
GGUUUCUACACAUUUAAGATT against Gpr44	inactive: 0.896
GGUGUCAGAUAAUGAUUGUTT against 4933426M11Rik	inactive: 1.12
CCUAUUAAGCGAUCCAGAUTT against Kcnj16	inactive: 0.538
CCCAUGAAAUUUCUGUGCGTT against Adcy3	inactive: 0.415
GGCUGGAGCCUCAAAUAUCTT against Rapsn	inactive: -0.705
GGUGGAAAAUUGAUACAAATT against Stx17	inactive: -0.915
GGUUGUUAUUGGAAAAGCATT against Pdpk1	inactive: -1.31
GCUGUAUUUCUGUUAACACTT against 6720425G15Rik	inactive: -0.692

Single values from the entries so far:
In z-score, GCUGUUACUCAGCAGAGAGTT against Bach2 is listed with inactive: -0.64
In z-score, GGAAAUCACAUUGUCCUGCTT against 3010003L21Rik is listed with inactive: -0.743

Further entries

Sequence	z-score
GCACAACCCUAGGCUAUCCTT against 1700091F14Rik	inactive: 0.519
GCAGUGUGAAAUCAACUAUTT against Frg1	inactive: 0.497
CCGCCAAGCUCAACUAUCUTT against Top1mt	inactive: -1.58
GCAUUCACUCCAUCAAUAGTT against LOC433886	inactive: -1.09
GGUUCUGUCUUUUACUUUCTT against Olfr1496	inactive: 1
GGGUUACAAUAACUGGACATT against Ggcx	inactive: -2.69
GGUGUCACCAUUUCAGUGGTT against Lbp	inactive: 0.901
GGGCCAGACAAUCAAACUGTT against Kcne3	inactive: 0.984
CUGUAUGUUAUCUCUACACTT against Olfr1513	inactive: -1.49
CCGAUAAUAUCAAUGGAAATT against Thrap4	inactive: 1.41
CCAUAUGUGAGAAACUACATT against AA545217	inactive: -1.9
GGCAAGGACUUCAACAAGATT against 5430407P10Rik	inactive: -0.0654
GGAAAAACUUCAGGAAGAATT against BC028768	inactive: 0.449
GGUAUAGCACCAUCCUGACTT against Olfr651	inactive: -0.541
GGAUGACAUAUUUUUGGACTT against Mpv17l	inactive: 0.441
GGUUCAGCAGUUGUCUGAGTT against 1700011F14Rik	inactive: -0.598
GCUUUGAGAGGUGUUGAUATT against LOC619945	inactive: 0.551
CCCUACGUGACAACCAGCATT against DXBwg1396e	inactive: -1.26
CCUGGAUCAGCAAUCCACATT against Lpxn	inactive: 0.103
GGAGAAUGAAAGGAUUCUGTT against 1700040L02Rik	inactive: 1.52
GCUACAUCUACCUUAGGCCTT against Olfr1329	inactive: -1.27
GCCCAUAUCUUGCCGAAAUTT against Bbp	inactive: 0.7
GCGGUUAGUGAAAGAAGGATT against 9130017A15Rik	inactive: -0.0298
GGAAUUUGACAAACUCAGCTT against Rcn3	inactive: 0.337
GCCAGUACGAAGUGAUCUGTT against Ccrl1	inactive: -2.62
GGUGACGCAGAGGAUCUAUTT against Pmf1	inactive: -2.08

Sequence	z-score
GGGCCACUGUCGAUAUGAATT against Prr3	inactive: 0.165
GCCUGUUAGCGGUUGUUGUTT against Syt10	inactive: 0.592
GGAAUUAUUCCCAAUCCUATT against Cbln1	inactive: 0.916
GCUUGCUAGAGUGAUCUCGTT against Adsl	inactive: 0.297
CCCACAGAACCACACAUUCTT against H2-DMa	inactive: -0.82
GGAUUUGGAUUUGUAAGCUTT against Pabpc1	inactive: -2.66
GGUUUAGACAGACUUUAGATT against Zbtb9	inactive: -0.803
GGACCUUUCCCAAUUCCUUTT against Cyp2e1	inactive: 0.782
CCAACUGGCAUUUGAUGUGTT against 5330438E18Rik	inactive: 0.838
GGGUUACUUCAGAUUUUGCTT against Atoh8	inactive: 0.0396
GGACGAAGCUCUGAAACACTT against Fbxl2	inactive: -0.169
GGGAACAUACUUCCUAAAGTT against A330104H05Rik	inactive: -0.197
CCAUAUGUGAUUUGUCUUGTT against Cacnb2	inactive: 0.108
GCAUUUUCUAGAUGGAAGCTT against Hao1	inactive: 1.17
GCACUAACCUAUACAUCUCTT against Sorl1	inactive: 0.579
CCACAUGAGUGGACCUACGTT against Arid3c	inactive: -1.38
GCUAGUUUGCCUGAAUAUUTT against Kif27	inactive: 0.21
CCCUGGCUGUCCUCUAUAATT against Ripply1	inactive: 0.908
GGAGGUUAAGAUUCCAGAGTT against 9230112O05Rik	inactive: 0.769
GAGUAUCAUUUCCUGUUUUTT against Olfr389	inactive: 0.0641
GGAUAUUUGGAGGACAACCTT against C1s	inactive: -0.0211
GGGAAAUUUAAAGCCCUCUTT against Olfr1225	inactive: -0.986
GGGCAACACAGGACAUCUATT against Amot	inactive: -1.41
GGUUGAAAAUUUCAAACAGTT against Btg4	inactive: 1.76
GGCAUUCUGUGAGACACAATT against Exosc10	inactive: -2.18
GCACAAGUUCGUGCCAGGUTT against Prf1	inactive: 0.0127
